Earlier results, collected in US20070043105A1, “Preventive for cerebal stroke recurrence” (ASTELLAS PHARMA INC., priority 2003, published 2007).

Test system: brain infarction model animals
Conditions: administered for 3 days before the brain infarction attack; cited from earlier work

CC(C)c1c(C(=O)Nc2ccccc2)c(-c2ccccc2)c(-c2ccc(F)cc2)n1CC[C@@H](O)C[C@@H](O)CC(=O)O [atorvastatin, (-)-(3R,5R)-7-[2-(4-fluorophenyl)-5-isopropyl-3-phenyl-4-phenylcarbamoyl-1H-pyrrol-1-yl]-3,5-dihydroxyheptanoic acid]
brain infarction volume: effective for reducing the brain infarction volume
